Changes are numbered by the printed parent chain. No constants are given. Whether binding was seen depends on the method and setting. Binding seen in cells or lysates may run through a third protein. For some assays here: Binding calls can cover weak binding; strength is not graded here. For some assays here: Sequences can lack the tags named with a protein.
B1: Rab22A (protein, UniProt Q9UL26 1-194)
chain: MALRELKVCLLGDTGVGKSSIVWRFVEDSFDPNINPTIGASFMTKTVQYQNELHKFLIWDTAGQERFRALAPMYYRGSAAAIIVYDITKEETFSTLKNWVKELRQHGPPNIVVAIAGNKCDLIDVREVMERDAKDYADSIHAIFVETSAKNAININELFIEISRRIPSTDANLPSGGKGFKLRRQPSEPKRSCC

How the values were obtained:
6xHis-Rab22A^WT (mouse) = biological target: T1, 6xHis-Rab22A^WT (mouse) (UniProt P35285); assay: pull-down; His-Rab22A^WT on Ni-NTA beads incubated with melanocyte lysate in RIPA buffer, 6-8 h, 4°C; immunoblot; the beads of Fig 5E were preloaded with nucleotide, here GTPγS (1 mM); only the target purified
T1 sequence: B1 chain with K101R, N110S, I123T, L173P, P174A

[1] = biological target: stalk domain of His-tagged KIF13A (human); assay: pull-down; His-KIF13A domains (motor, stalk-1, stalk-2, tail) on Ni-NTA beads incubated with HeLa cell lysate in RIPA buffer, 6-8 h, 4°C; immunoblot; only the target purified

Molecule	binding (6xHis-Rab22A^WT (mouse))	binding [1]
Rab7, of melanocytes (mouse (endogenous in melanocytes))	no binding	–
B1	–	binds

From paper PMC6280653
